According to patent publication US20070050866A1:
These are yes or no findings as the source states them, for the method shown. Some binding calls cover weakened binding; strength is not graded here. Where a sequence is shown, tags or fusion partners need not be part of it.

The chains behind the UniProt entries cited, without tags or fusion partners.
UniProt Q9C9W9: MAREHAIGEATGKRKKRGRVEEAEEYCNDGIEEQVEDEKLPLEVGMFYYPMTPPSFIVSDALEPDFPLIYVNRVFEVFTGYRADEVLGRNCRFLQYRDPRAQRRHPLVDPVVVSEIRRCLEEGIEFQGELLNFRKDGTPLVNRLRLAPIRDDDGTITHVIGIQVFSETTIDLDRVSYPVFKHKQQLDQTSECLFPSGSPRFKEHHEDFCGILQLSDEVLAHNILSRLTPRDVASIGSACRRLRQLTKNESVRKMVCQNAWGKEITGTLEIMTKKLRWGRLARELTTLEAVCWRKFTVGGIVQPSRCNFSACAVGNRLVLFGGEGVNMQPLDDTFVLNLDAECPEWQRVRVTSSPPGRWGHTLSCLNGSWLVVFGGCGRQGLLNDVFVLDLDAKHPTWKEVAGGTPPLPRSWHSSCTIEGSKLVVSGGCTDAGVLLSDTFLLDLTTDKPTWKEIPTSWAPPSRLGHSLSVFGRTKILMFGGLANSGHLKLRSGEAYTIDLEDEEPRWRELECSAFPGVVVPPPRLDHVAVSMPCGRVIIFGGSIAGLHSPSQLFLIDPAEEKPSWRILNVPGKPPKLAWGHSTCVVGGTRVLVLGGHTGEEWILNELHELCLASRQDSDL

Biological target: YFP-FKF1 (UniProt Q9C9W9)
Experiment: co-localisation of CFP and YFP fusions co-injected into onion epidermal cells (indirect; interaction inferred from the same location)

- binding: binds
B1: CFP-COL8 (protein, Arabidopsis thaliana, UniProt Q9M9B3 1-319, looked up, not shown: large carriers)
chain: MFCAEIMISKYQEDVKQPRACELCLNKHAVWYCASDDAFLCHVCDESVHSANHVATKHERVCLRTNEISNDVRGGTTLTSVWHSGFRRKARTPRSRYEKKPQQKIDDERRREDPRVPEIGGEVMFFIPEANDDDMTSLVPEFEGFTEMGFFLSNHNGTEETTKQFNFEEEADTMEDLYYNGEEEDKTDGAEACPGQYLMSCKKDYDNVITVSEKTEEIEDCYENNARHRLNYENVIAAWDKQESPRDVKNNTSSFQLVPPGIEEKRVRSEREARVWRYRDKRKNRLFEKKIRYEVRKVNADKRPRMKGRFVRRSLAIDS
